# Experimental data published in PubChem BioAssay AID652054 (National Center for Advancing Translational Sciences (NCATS), 2013).
# Protein sequences, listed by entry. Tags and fused reporters are not part of them.
# UniProt P35462, whole entry, looked up: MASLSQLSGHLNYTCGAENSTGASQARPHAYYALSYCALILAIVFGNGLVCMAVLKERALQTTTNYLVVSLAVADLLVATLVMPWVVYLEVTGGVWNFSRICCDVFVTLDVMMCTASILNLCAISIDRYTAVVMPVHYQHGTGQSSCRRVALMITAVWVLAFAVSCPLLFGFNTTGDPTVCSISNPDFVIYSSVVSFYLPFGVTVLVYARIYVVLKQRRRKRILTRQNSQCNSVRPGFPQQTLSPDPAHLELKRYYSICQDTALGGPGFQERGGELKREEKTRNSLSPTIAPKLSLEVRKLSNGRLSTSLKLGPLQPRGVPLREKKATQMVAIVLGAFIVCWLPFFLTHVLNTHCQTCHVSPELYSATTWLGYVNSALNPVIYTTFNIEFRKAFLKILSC
# Where “and” joins values, the source holds several entries; their conditions need not be identical. Equal entries are not always repeated. The campaign covered roughly 360,000 compounds. About 9,100 (2.5%) were called active. Inconclusive results, whose numbers are uncertain, are shown with a selection of clear calls. No stated cut-off is given here; in the data, active means max response below about -50%; inconclusive means no clear call, values can overlap the other calls; inactive means above that. Square brackets hold non-standard residues; d marks the D form. Peptide text beside a SMILES is read from it. * marks the point of attachment. ξ: configuration not given here. Cbz = O=C(OCc1ccccc1)*; OBn = c1ccc(CO*)cc1; ξP = O=C(O)C1CCCN1
# Biological target: D(3) dopamine receptor (Homo sapiens) (UniProt P35462)
# Assay: qHTS of D3 Dopamine Receptor Antagonist: qHTS
# Settings: D3R cells, DiscoveRx beta-arrestin luminescence, antagonist mode; stronger effect = lower value
# Outline: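 Cells plated overnight at 1500 cells/well, then exposed to library compounds with dopamine controls for 90 minutes at 37 degrees C. DiscoveRx reagent added for 30–60 minutes at room temperature; luminescence read, quantitative HTS format.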
# On the % scale 0 is the no-effect control and ±100 the full control effect.
row,Compound,"max response, negative = inhibition"
1,CCN(CC)CCC(c1ccc2c(c1)OCO2)c1c(OC)cc(OC)c2c(-c3ccccc3)cc(=O)oc12 (configuration not stated),inconclusive: -37%
2,Cc1ccc2[nH]c(=O)c(CN(CCCN3CCOCC3)Cc3nnnn3C3CCCC3)cc2c1,inactive: -0.05%
3,CCCCCC(=O)NC(=S)NC1C2CC3CC(C2)CC1C3 (configuration not stated),inconclusive: -39%
4,Cc1cc(C(=O)NC(C)C2CCCO2)cs1 (configuration not stated),inconclusive: -32.9%
5,CCC(=O)Nc1c(C#N)c2nc3ccccc3nc2n1-c1ccccc1C,inactive: 80.3%
6,CCCSc1ccc([C@@H]2[C@@H]3C(=O)N(CC)C(=O)[C@@H]3[C@]3(C(=O)OC)CCCCN23)cc1,inactive: 3.45%
7,CCOc1ccc(/C=N/NC(=S)NC2CC3CCC2C3)cc1 (configuration not stated),inconclusive: -30.2%
8,CCOC(=O)[C@@H]1CSCCS(=O)(=O)N1Cc1ccccc1Br,inactive: 0%
9,Cc1ccc(NC(=O)N(Cc2ccco2)C(C)c2ccco2)cc1C (configuration not stated),inconclusive: -45.5%
10,COc1ccc(C(=O)NCC(=O)N/N=C/c2c(C)[nH]c3ccccc23)cc1,inconclusive: -38.9%
11,CCN(CC)c1ccc(NC(=O)c2ccc(Cl)nc2)cc1,inconclusive: -36.5%
12,Cc1c(COc2ccc3ccccc3c2)nnn1CC(=O)NS(=O)(=O)c1ccccc1C(F)(F)F,inactive: 13.2%
13,CSc1nc(NC(C)(C)C)nc(Oc2ccc(=O)[nH]n2)n1,inconclusive: -37.4%
14,Cc1ccc(C(=O)O/N=C(\N)c2ccccn2)c(Cl)c1,inactive: 16.6%
15,CN1CCc2c(n(CC(O)CNCc3ccccc3)c3ccccc23)C1=O (configuration not stated),inconclusive: -33.8%
17,CC(C)(C)OC(=O)N(CCc1ccccc1)Cc1ccc(OCc2cccc(NC(=O)C3CCCC3)c2)cc1,inactive: 6.24%
18,Cc1ccc(NC(=S)NC(=O)c2ccc(F)cc2)cc1S(=O)(=O)Nc1cccc(Cl)c1,active: -59.8%
19,CCCCCn1c(CN(C)Cc2ccccc2)nc2c1c(=O)n(C)c(=O)n2C,inactive: 15.2%
20,CC(=O)N(c1ccc2oc(=O)sc2c1)S(=O)(=O)c1cccs1,active: -50.9%
21,C=CCc1c(C)nc(C)nc1N/N=C/c1ccc(N(C)C)cc1,inactive: 8.82%
22,COc1ccc(NC(=O)C2CCCCN2S(=O)(=O)c2ccc(F)cc2)cc1 (configuration not stated),inactive: -26.5%

# Looked up by structure from the list above (5):
row,Compound,"max response, negative = inhibition"
14,Cc1ccc(C(=O)O/N=C(\N)c2ccccn2)c(Cl)c1,inactive: 16.6%
6,CCCSc1ccc([C@@H]2[C@@H]3C(=O)N(CC)C(=O)[C@@H]3[C@]3(C(=O)OC)CCCCN23)cc1,inactive: 3.45%
7,CCOc1ccc(/C=N/NC(=S)NC2CC3CCC2C3)cc1 (configuration not stated),inconclusive: -30.2%
17,CC(C)(C)OC(=O)N(CCc1ccccc1)Cc1ccc(OCc2cccc(NC(=O)C3CCCC3)c2)cc1,inactive: 6.24%
10,COc1ccc(C(=O)NCC(=O)N/N=C/c2c(C)[nH]c3ccccc23)cc1,inconclusive: -38.9%

# (more compounds)

row,Compound,"max response, negative = inhibition"
1,O=C(Nc1ccc(NC(=O)c2cccs2)cn1)c1ccco1,inconclusive: -46.4%
2,COc1cccc(NC(=O)C2(C)CCN2C(=O)CCc2ccc(Cl)cc2Cl)c1 (configuration not stated),active: -60.4%
4,Cc1ccc(N2CCN(CCCCN3C(=O)C4CCCN4C3=O)CC2)cc1 (configuration not stated),active: -78%
5,CC1(C(=O)NCc2ccccc2)Oc2ccccc2NC1=O (configuration not stated),inconclusive: -47.3%
6,O=C(CNC(=O)OCc1ccccc1)NCC(=O)N1CCCC1C(=O)OCc1ccccc1 (stereo not drawn) (Cbz-Gly-Gly-[ξP]-OBn),inconclusive: -48.4%
7,CC(C)NS(=O)(=O)c1ccc(NC(=S)NC(=O)c2cccc([N+](=O)[O-])c2)cc1,active: -94.1%
8,COc1ccc(N(CC(=O)NC2CC3CCC2C3)S(=O)(=O)c2ccc(C)c([N+](=O)[O-])c2)cc1 (configuration not stated),inconclusive: -42.9%
9,CCCc1ccc(C(O)c2ncc(-c3ccc(OC)cc3)[nH]2)cc1 (configuration not stated),inconclusive: -49.6%
10,COc1ccc(N2C(=O)CS(=O)C(c3ccccc3)C2=O)cc1 (configuration not stated),inconclusive: -37%
11,Nc1nc(SCc2ccccc2)[nH]c(=O)c1-c1ccccc1,inconclusive: -34%
12,O=C(CCc1ccccc1)Nc1cccc([N+](=O)[O-])c1,inconclusive: -30%
13,CC(C)(C)[C@H]1C=C(C(=O)N2CCN(Cc3ccc4c(c3)OCO4)CC2)O[C@@H](OCc2ccc(CO)cc2)C1,inactive: 0%
14,Oc1oc(-c2cccc3ccccc23)nc1/C=N/c1nccs1,inconclusive: -48.2%
15,Oc1ccc(C[C@H]2CN([C@@H](Cc3ccc(O)cc3)CN3CCC[C@@H]3CN3C(=S)NC[C@@H]3Cc3ccccc3)C(=S)N2CC2CCCCCC2)cc1,inactive: -21.7%
16,Cc1ccc(C(=O)C2=C(O)C(=O)N(CCCN(C)C)C23C(=O)N(C)c2ccccc23)o1 (configuration not stated),inconclusive: -36%
17,CN(C)CCNC(=O)c1ccc2c(=O)n(Cc3ccc(Cl)cc3)c(=S)[nH]c2c1,active: -57.7%
18,COc1ccccc1NC(=S)N1CCN(c2ccc(F)cc2)CC1,inconclusive: -30.6%
19,O=[N+]([O-])c1cccc(CN(CCO)Cc2ccccc2)c1,inconclusive: -37.9%
20,CCc1ccc(CN(C)Cc2nc(-c3cccc(Cl)c3)no2)nc1,inconclusive: -30.1%
21,COCC(C)NC(=O)NC(=O)c1ccc(Cl)cc1 (configuration not stated),active: -104%
22,Cc1nc2sc(C(c3ccc(Cl)cc3)N3CCOCC3)c(O)n2n1 (configuration not stated),inactive: 26.2%

row,Compound,"max response, negative = inhibition"
1,COc1ccc(C)c(NC(=O)NCCc2cnc[nH]2)c1,inconclusive: -30.2%
2,Cc1cnc(NC(=O)c2ccc3c(c2)C(=O)N(Cc2cccnc2)C3=O)s1,inactive: 6.5%
3,Cc1ccc(CNc2c(C=O)c(=O)[nH]c3ccccc23)cc1,inactive: 0.312%
4,CCc1nn(CC(=O)N2CCN(CC)CC2)c(=O)c2cc3sccc3n12,inconclusive: -30.3%
5,COc1ccc(-c2nc3ccccc3c(=O)n2O)cc1,inconclusive: -31%
6,CCOCc1cn(CC(=O)c2ccc(Cl)cc2)c(C)nc1=N,inconclusive: -38.1%
7,CC(C)NC(=O)C1CCN(Cc2cccc(Oc3ccccc3)c2)CC1,inconclusive: -30.2%
8,CCCCN(C(=O)CCn1c(=O)oc2ccccc21)c1ccccc1,inactive: -2.35%
9,COc1ccc(NC(=O)C2(c3ccc(NC(=O)c4ccc(OC(C)=O)cc4)cc3)CCCC2)cc1,inconclusive: -31.3%
10,CCCc1[nH]nc2c1C(c1ccc(OCCN3CCOCC3)c(OCC)c1)C(C#N)=C(N)O2 (configuration not stated),inactive: -5.88%
11,CCCN(C(=O)c1c(-c2ccccc2)noc1C)c1c(N)n(Cc2ccccc2)c(=O)[nH]c1=O,inconclusive: -34.8%
12,NNC(=O)/C(=N/Nc1ccccc1)S(=O)(=O)c1ccc(Cl)cc1,inconclusive: -42%
13,O=C(C1=C[C@H](C2CCCCC2)C[C@H](OCc2ccc(CO)cc2)O1)N1CCN(Cc2ccc3c(c2)OCO3)CC1,inconclusive: -44.3%
14,Cc1ccccc1C1C(C#N)=C2N=C(N)c3c(sc4c3CCCCC4)N2C2=C1C(=O)CCC2 (configuration not stated),active: -75.8%
15,CCN(CC)S(=O)(=O)c1ccc2oc(C(=O)N3CCc4ccccc4C3)c(C)c2c1,inactive: -4.76%
16,CC(=O)Nc1sc2c(c1C(c1ccc(F)cc1)N1CCOCC1)CCCC2 (configuration not stated),inconclusive: -35.9%
17,O=[N+]([O-])c1ccc(N2CCN(c3ccccc3O)CC2)c(Cl)c1,inconclusive: -33.5%
18,CCN(CC)S(=O)(=O)c1ccc(NC(=O)C2CCCO2)cc1 (configuration not stated),inconclusive: -33.7%
19,CC1=NN(c2ccc(N)cc2)C(=O)C1,inconclusive: -37.2%
20,N#C/C(=C/N1CCOCC1)c1ccccc1,inactive: 13.7%
21,CN1CCN(c2ccccc2NC(=O)c2cc3c(s2)-c2ccccc2OC3)CC1,inconclusive: -30.9%
22,Cc1ccc(NC(NC(=O)c2cccs2)C(Cl)(Cl)Cl)cc1C (configuration not stated),inconclusive: -44.9%

row,Compound,"max response, negative = inhibition"
1,O=C(CCl)Nc1ccccc1Sc1ccccc1,inconclusive: -41.7%
2,Brc1cccc(OCCn2ccnc2)c1,active: -65.3%
3,Cc1cc2nc(-c3ccccc3Br)n(/C=C(\c3ccccc3)n3c(=O)[nH]c4ccccc43)c2cc1C,inconclusive: -40.9%
4,CCOc1ccc(C2C(C(=O)OC)=CN(C(C)c3ccccc3)C=C2C(=O)OC)cc1 (configuration not stated),inactive: -12%
5,COc1ccc2cc3cc(C(=O)NCCN4CCc5ccccc5C4)oc3nc2c1,inconclusive: -38.5%
6,CCOCCOc1cc(NCc2ccccc2)c2ncn(C(C)C)c2c1,inconclusive: -31.9%
7,C=CCOc1ccccc1C(=O)/C=C1/C(=O)Nc2ccccc21,inconclusive: -39.1%
8,O=C(O)COc1cccc(/C=C2/SC(=S)N(Cc3ccccc3)C2=O)c1,inconclusive: -45.1%
9,COc1cccc(C(=O)NCC(c2ccc3c(c2)OCO3)N2CCN(c3ccc(F)cc3)CC2)c1 (configuration not stated),inconclusive: -30.5%
10,Cc1ccc2[nH]c(-c3ccccc3)c(CN3CCCC3)c(=O)c2c1,inactive: 16.1%
11,CC(OC(=O)CC1CCCC1)C(=O)Nc1ccc(Cl)cn1 (configuration not stated),active: -53.9%
12,C=CCNC(=O)NS(=O)(=O)c1ccc(C)cc1,inconclusive: -33.8%
13,CN(CC(=O)Nc1ccc(F)cc1)C(=O)c1ccc(OCc2ccccc2)cc1,inactive: -4.95%
14,OC(COCc1cccs1)CN1CCN(c2cccc(Cl)c2)CC1 (configuration not stated),active: -56.1%
15,CCOc1ccccc1NC(=O)C1=C(C)NC(=O)NC1c1cccc(OC)c1OC (configuration not stated),inconclusive: -36.9%
16,CC(C)C(=O)N1C2CCC1CC(O)(c1ccc(F)cc1)C2 (configuration not stated),active: -67%
17,O=C(O)CNC(=O)c1ccc(OC(F)F)cc1,inconclusive: -35.2%
18,Cc1ccc(/C=N/NC(=O)c2ccncc2)cc1,inconclusive: -35%
19,Cc1ccc(NC(=O)c2nc(S(=O)(=O)Cc3ccccc3)ncc2Cl)cc1,active: -86.4%
20,CS/C(=N\S(=O)(=O)c1ccc(Cl)cc1)c1ccccc1,inactive: 3.02%
21,O=S1OC(c2ccccc2)c2cc(Cl)ccc21 (configuration not stated),inconclusive: -35.9%
